PubChem BioAssay AID1259291 – Sanger Institute, 2017
The deposit covers 794 reagents; this is a part drawn at random. 15 of all reagents (1.9%) were called active. 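Calls rest on knock-down alone; drug synergy scores do not affect them; drugs added a day post-transfection, DMSO vehicle as comparison.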 No viability above 1 is reported: the scale is capped. Not all columns of the deposit are shown. Not given: the amount of reagent, the time to read-out.

Aim: 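Genes needed for HT29 colorectal cancer cell survival or for sensitivity to drugs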 (primary screen)
Cell system: HT29 human colorectal cancer cells
Knock-down reagent: siRNA pool against human genes
Conditions: anchor drugs added a day after transfection: BYL719 at 1 µM, cetuximab at 5 µg/ml or trametinib at 10 nM, or DMSO vehicle alone
Read-out: 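Replicate-averaged viability relative to non-targeting pool, robust z-score based on control wells, plus per-drug synergy score for 1 µM BYL719, 5 µg/ml cetuximab and 10 nM trametinib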
Direction: robust z-score, knock-down alone and viability, knock-down alone: higher = more viable cells
Units: viability, knock-down alone in fraction of control
Hit rule: 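Essential when the robust z-score for knock-down without any drug is below -3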
Meaning of the calls: active = essential (knock-down alone); inactive = no change alone

After knock-down of RPS6KA4 (ribosomal protein S6 kinase A4) the results were robust z-score, knock-down alone -2.77; viability, knock-down alone 0.794; inactive. After knock-down of MAPK3 (mitogen-activated protein kinase 3), the screen gave robust z-score, knock-down alone 0.552; viability, knock-down alone 1; inactive. Depletion of NEK7 (NIMA related kinase 7) came out at: robust z-score, knock-down alone 0.548; viability, knock-down alone 1; inactive. Knock-down of RNASEL (ribonuclease L) came out at: robust z-score, knock-down alone 0.552; viability, knock-down alone 1; inactive. Depletion of MPP1 (MAGUK p55 scaffold protein 1) resulted in: robust z-score, knock-down alone -0.175; viability, knock-down alone 0.955; inactive. After knock-down of ZC3H11A (zinc finger CCCH-type containing 11A) the results were robust z-score, knock-down alone 0.323; viability, knock-down alone 0.986; inactive.

Against ALK (ALK receptor tyrosine kinase), the values are robust z-score, knock-down alone 0.552; viability, knock-down alone 1; inactive. Silencing of CHD9 (chromodomain helicase DNA binding protein 9) came out at: robust z-score, knock-down alone -1.37; viability, knock-down alone 0.881; inactive. With knock-down of SPEG (striated muscle enriched protein kinase) the results were robust z-score, knock-down alone 0.428; viability, knock-down alone 0.992; inactive. For ETNK1 (ethanolamine kinase 1), the entry reads robust z-score, knock-down alone 0.552; viability, knock-down alone 1; inactive. Against RFK (riboflavin kinase), the values are robust z-score, knock-down alone 0.552; viability, knock-down alone 1; inactive. Silencing of MAP3K20 (mitogen-activated protein kinase kinase kinase 20) came out at: robust z-score, knock-down alone -1.47; viability, knock-down alone 0.875; inactive.

Against TEC (tec protein tyrosine kinase), the values are robust z-score, knock-down alone 0.552; viability, knock-down alone 1; inactive. STK16 (serine/threonine kinase 16) scored robust z-score, knock-down alone 0.153; viability, knock-down alone 0.975; inactive.

4 successive reagents already listed:
MPP1 (MAGUK p55 scaffold protein 1): robust z-score, knock-down alone = -0.175; viability, knock-down alone = 0.955; activity call = inactive
ZC3H11A (zinc finger CCCH-type containing 11A): robust z-score, knock-down alone = 0.323; viability, knock-down alone = 0.986; activity call = inactive
ALK (ALK receptor tyrosine kinase): robust z-score, knock-down alone = 0.552; viability, knock-down alone = 1; activity call = inactive
CHD9 (chromodomain helicase DNA binding protein 9): robust z-score, knock-down alone = -1.37; viability, knock-down alone = 0.881; activity call = inactive

Additional results:
For ARID1A (AT-rich interaction domain 1A), the values are robust z-score, knock-down alone -0.472; viability, knock-down alone 0.936; inactive. Depletion of RPS6KB1 (ribosomal protein S6 kinase B1) came out at: robust z-score, knock-down alone 0.552; viability, knock-down alone 1; inactive. Against PIP4K2C (phosphatidylinositol-5-phosphate 4-kinase type 2 gamma) the deposit lists robust z-score, knock-down alone 0.141; viability, knock-down alone 0.974; inactive. After knock-down of PACSIN1 (protein kinase C and casein kinase substrate in neurons 1), the screen gave robust z-score, knock-down alone 0.552; viability, knock-down alone 1; inactive. Against EPHA10 (EPH receptor A10) the deposit lists robust z-score, knock-down alone -0.562; viability, knock-down alone 0.931; inactive. After knock-down of PRKCE (protein kinase C epsilon), the screen gave robust z-score, knock-down alone 0.404; viability, knock-down alone 0.991; inactive.

After knock-down of CDK2 (cyclin dependent kinase 2), the screen gave robust z-score, knock-down alone 0.552; viability, knock-down alone 1; inactive. Against DLG4 (discs large MAGUK scaffold protein 4), the values are robust z-score, knock-down alone 0.552; viability, knock-down alone 1; inactive. RPS6KA3 (ribosomal protein S6 kinase A3) gave robust z-score, knock-down alone 0.552; viability, knock-down alone 1; inactive. Silencing of CERT1 (ceramide transporter 1) resulted in: robust z-score, knock-down alone 0.552; viability, knock-down alone 1; inactive. Depletion of CDKN1C (cyclin dependent kinase inhibitor 1C) gave: robust z-score, knock-down alone 0.552; viability, knock-down alone 1; inactive. For GUK1 (guanylate kinase 1), the values are robust z-score, knock-down alone 0.552; viability, knock-down alone 1; inactive.

HIPK3 (homeodomain interacting protein kinase 3) showed robust z-score, knock-down alone 0.552; viability, knock-down alone 1; inactive. For CHUK, the entry reads robust z-score, knock-down alone 0.552; viability, knock-down alone 1; inactive. For CDK9 (cyclin dependent kinase 9), the values are robust z-score, knock-down alone 0.552; viability, knock-down alone 1; inactive. Silencing of PRKY (protein kinase Y-linked (pseudogene)) came out at: robust z-score, knock-down alone 0.255; viability, knock-down alone 0.982; inactive. MYLK3 (myosin light chain kinase 3) showed robust z-score, knock-down alone 0.552; viability, knock-down alone 1; inactive. Silencing of ADCK2 (aarF domain containing kinase 2) resulted in: robust z-score, knock-down alone 0.0635; viability, knock-down alone 0.97; inactive.

NRK (Nik related kinase) gave robust z-score, knock-down alone 0.205; viability, knock-down alone 0.978; inactive. For MAPK7 (mitogen-activated protein kinase 7) the deposit lists robust z-score, knock-down alone 0.552; viability, knock-down alone 1; inactive. Against ALPK3 (alpha kinase 3), the values are robust z-score, knock-down alone 0.552; viability, knock-down alone 1; inactive. Silencing of MAPK10 (mitogen-activated protein kinase 10) came out at: robust z-score, knock-down alone 0.552; viability, knock-down alone 1; inactive.
